Data: the supplement of paper PMC10849652
Some of the results follow.

Protein sequences, listed by entry. Tags and fused reporters are not part of them. Lines headed by an entry give the natural chain unless they say otherwise; changes in a name come on top.
UniProt Q8N5B7: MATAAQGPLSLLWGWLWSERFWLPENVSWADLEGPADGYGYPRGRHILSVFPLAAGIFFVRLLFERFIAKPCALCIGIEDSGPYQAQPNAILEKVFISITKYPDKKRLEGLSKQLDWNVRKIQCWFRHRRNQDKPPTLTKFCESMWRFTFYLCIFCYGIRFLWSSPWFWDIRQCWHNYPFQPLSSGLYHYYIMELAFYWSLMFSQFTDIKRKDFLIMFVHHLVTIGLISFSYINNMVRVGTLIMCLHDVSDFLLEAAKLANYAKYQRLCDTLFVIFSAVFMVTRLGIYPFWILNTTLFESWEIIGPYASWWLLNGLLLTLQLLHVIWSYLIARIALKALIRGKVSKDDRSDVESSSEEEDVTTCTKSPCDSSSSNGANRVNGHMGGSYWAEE
UniProt Q9NSP4: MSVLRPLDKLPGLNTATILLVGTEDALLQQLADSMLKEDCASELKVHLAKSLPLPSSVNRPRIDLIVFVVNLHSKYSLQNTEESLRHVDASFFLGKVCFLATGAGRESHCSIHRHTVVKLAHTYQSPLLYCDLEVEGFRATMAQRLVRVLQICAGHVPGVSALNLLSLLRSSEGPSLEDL
UniProt Q9BYV8: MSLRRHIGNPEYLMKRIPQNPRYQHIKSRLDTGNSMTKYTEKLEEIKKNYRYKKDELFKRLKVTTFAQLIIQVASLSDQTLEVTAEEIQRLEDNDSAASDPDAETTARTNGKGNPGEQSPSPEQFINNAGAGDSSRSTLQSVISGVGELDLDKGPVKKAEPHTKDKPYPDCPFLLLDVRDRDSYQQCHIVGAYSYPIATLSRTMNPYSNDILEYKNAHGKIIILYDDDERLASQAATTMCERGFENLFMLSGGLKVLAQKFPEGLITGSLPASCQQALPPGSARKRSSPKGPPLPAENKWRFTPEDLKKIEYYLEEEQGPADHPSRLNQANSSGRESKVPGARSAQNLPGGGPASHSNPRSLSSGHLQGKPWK
UniProt O43822: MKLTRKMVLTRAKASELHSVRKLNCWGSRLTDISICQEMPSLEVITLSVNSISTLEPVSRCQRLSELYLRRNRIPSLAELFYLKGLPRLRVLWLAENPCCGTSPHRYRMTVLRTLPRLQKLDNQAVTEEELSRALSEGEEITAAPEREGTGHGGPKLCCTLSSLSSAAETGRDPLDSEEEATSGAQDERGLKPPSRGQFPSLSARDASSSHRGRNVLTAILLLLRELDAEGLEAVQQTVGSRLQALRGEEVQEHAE
UniProt Q6IPU0: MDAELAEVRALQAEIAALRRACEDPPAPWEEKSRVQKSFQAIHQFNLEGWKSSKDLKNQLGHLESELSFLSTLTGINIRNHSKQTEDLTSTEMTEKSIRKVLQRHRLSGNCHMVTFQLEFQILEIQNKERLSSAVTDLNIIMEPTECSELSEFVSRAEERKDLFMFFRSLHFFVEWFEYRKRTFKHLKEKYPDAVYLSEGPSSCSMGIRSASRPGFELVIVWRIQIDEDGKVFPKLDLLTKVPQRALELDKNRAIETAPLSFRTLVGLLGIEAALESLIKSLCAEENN
UniProt Q96SZ6: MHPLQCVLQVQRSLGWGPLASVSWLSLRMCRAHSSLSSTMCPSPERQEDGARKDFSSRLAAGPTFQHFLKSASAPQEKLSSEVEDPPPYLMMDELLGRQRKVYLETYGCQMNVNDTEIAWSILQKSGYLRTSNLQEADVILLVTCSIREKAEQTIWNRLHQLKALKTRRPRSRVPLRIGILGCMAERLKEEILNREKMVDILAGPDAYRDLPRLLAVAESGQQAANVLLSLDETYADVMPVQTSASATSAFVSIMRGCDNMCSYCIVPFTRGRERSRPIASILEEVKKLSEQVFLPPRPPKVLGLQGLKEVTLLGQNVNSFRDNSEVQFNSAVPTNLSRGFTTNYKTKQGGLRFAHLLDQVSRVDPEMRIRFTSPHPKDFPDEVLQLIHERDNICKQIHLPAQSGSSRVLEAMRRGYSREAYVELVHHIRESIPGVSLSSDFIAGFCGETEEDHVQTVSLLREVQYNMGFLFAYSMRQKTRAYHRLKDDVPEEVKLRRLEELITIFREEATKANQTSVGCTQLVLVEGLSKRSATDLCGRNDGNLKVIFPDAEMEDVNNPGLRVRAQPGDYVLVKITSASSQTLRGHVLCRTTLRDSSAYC
UniProt P30304: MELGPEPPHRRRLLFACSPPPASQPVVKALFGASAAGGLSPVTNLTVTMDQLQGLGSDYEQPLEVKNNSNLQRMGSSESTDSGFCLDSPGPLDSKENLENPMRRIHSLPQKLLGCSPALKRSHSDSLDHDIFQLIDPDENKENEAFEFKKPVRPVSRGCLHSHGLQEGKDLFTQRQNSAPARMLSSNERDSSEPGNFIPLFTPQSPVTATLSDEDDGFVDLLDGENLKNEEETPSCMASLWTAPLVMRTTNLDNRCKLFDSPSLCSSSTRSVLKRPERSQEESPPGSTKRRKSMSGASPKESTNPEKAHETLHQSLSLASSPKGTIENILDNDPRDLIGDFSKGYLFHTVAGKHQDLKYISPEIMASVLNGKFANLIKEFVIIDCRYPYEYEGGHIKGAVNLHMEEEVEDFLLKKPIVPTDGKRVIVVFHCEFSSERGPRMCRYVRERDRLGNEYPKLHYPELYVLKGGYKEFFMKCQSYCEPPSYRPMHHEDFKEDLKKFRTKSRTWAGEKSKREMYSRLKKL
UniProt Q7Z7K6: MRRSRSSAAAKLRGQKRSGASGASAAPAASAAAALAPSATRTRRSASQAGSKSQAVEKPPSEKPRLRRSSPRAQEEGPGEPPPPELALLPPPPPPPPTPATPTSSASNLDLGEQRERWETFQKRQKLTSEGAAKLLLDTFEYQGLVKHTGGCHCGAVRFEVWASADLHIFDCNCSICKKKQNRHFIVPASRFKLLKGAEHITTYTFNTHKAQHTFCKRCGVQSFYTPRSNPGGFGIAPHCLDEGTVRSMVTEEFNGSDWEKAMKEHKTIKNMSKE

What was measured:
Test in all cases: log2 fold change, soluble protein after heating vs DMSO (PISA); higher = thermal stabilisation; K562 lysate, 10 uM; active = over 0.2 and 3.5 SD of the protein, either way, in both replicates (recomputed)
ibrutinib = compound: C=CC(=O)N1CCC[C@@H](n2nc(-c3ccc(Oc4ccccc4)cc3)c3c(N)ncnc32)C1 [ibrutinib]
Summary of the method: (§1)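 Log-two fold change in thermal stability relative to solvent controls is reported from duplicates. For each sample, crude K562 extract from dounce-homogenised pellets in PBS pH 7.4 with 1 mM MgCl2, at 1 mg/mL protein, was treated with 10 μM compound for 30 min. Aliquots heated for 3 min across 48°C-58°C were pooled, brought to 0.5% NP-40 at 4°C and cleared at 21,000xg for 90 min. The supernatant was quantified by TMTpro 16plex LC-MS/MS with channel sums equalised.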

[1] = compound: CC(=O)c1cnc2ccc(-c3cc(Cl)c(O)c(Cl)c3)nc2c1N[C@H]1CC[C@H](CN(C)C)CC1
Summary of the method: as §1

[2] = compound: CC1=CC=C(C=C1)SC2=C3C=C(SC3=CN=C2)C(=O)N
Summary of the method: as §1

ralimetinib = compound: CC(C)(C)Cn1c(N)nc2ccc(-c3[nH]c(C(C)(C)C)nc3-c3ccc(F)cc3)nc21 [ralimetinib]
Summary of the method: as §1

[3] = compound: CC(C)(O)CC(=O)NCCn1ccc2ncnc(Nc3ccc(Oc4cccc(C(F)(F)F)c4)c(Cl)c3)c21
Summary of the method: as §1

[4] = compound: CC(C)C1=C2N=C(C=C(N2N=C1)NCC3=CC=CC=C3)NCCCCCCN
Summary of the method: as §1

[5] = compound: CC1=C(C2=C(C=C1)C(=O)C3=CC=CC=C3N2CCCN)C
Summary of the method: as §1

[6] = compound: CC1=C(C=C(C=C1)NC(=O)C2=CC(=CC=C2)C(C)(C)C#N)NC3=CC4=C(C=C3)N=CN(C4=O)C
Summary of the method: as §1

[7] = compound: CC1=C(C=C(C=C1)NC(=O)C2=CC(=CC=C2)N(C)C)NC(=O)C3=CC=C(C=C3)O
Summary of the method: as §1

[8] = compound: CC1=C(C(CC(=O)N1)C2=CC=C(C=C2)C(F)(F)F)C(=O)NC3=C(C=C4C(=C3)C=NN4)F
Summary of the method: as §1

Measured: log2 fold change

CFL1 (UniProt E9PP50)
inactive: ibrutinib 0.175 | [1] 0.04 | [2] 0.132

CERS5 (UniProt Q8N5B7)
inactive: ibrutinib -0.031 | [1] -0.021 | ralimetinib 0.034 | [3] -0.053 | [4] -0.007 | [5] 0.029 | [6] 0.002 | [7] 0.028 | [2] -0.033

CENPM (UniProt Q9NSP4)
inactive: ibrutinib 0.063 | ralimetinib 0.063 | [3] -0.09 | [4] -0.004 | [8] -0.058 | [5] -0.082 | [6] 0.295 | [7] -0.075

CEP41 (UniProt Q9BYV8)
inactive: ibrutinib 0.014 | [1] 0.045 | [4] 0.021 | [8] -0.025 | [5] 0.095 | [6] 0.011 | [2] -0.031

CFAP410 (UniProt O43822)
inactive: ibrutinib 0.018 | ralimetinib 0.163 | [3] -0.01 | [4] 0.048 | [8] 0.019 | [6] -0.004 | [7] -0.017

CENPP (UniProt Q6IPU0)
inactive: [1] 0.009 | ralimetinib 0 | [3] -0.002 | [4] -0.041 | [8] 0.168 | [5] -0.098 | [6] 0 | [7] -0.003 | [2] -0.037

CDK5RAP1 (UniProt Q96SZ6)
inactive: ibrutinib -0.369 | ralimetinib -0.018 | [3] -0.062 | [4] 0.122 | [8] -0.002 | [5] -0.027 | [6] -0.001 | [7] 0.045

CDC25A (UniProt P30304)
inactive: [1] -0.009 | ralimetinib 0.014 | [3] -0.044 | [4] 0.019 | [8] -0.017 | [5] 0.012 | [6] 0.087 | [7] 0.015 | [2] 0.002

Reprinted from the entries so far (two entries):
CEP41 (UniProt Q9BYV8)
inactive: ibrutinib 0.014 | [1] 0.045 | [4] 0.021 | [8] -0.025 | [5] 0.095 | [6] 0.011 | [2] -0.031

CFAP410 (UniProt O43822)
inactive: ibrutinib 0.018 | ralimetinib 0.163 | [3] -0.01 | [4] 0.048 | [8] 0.019 | [6] -0.004 | [7] -0.017

Following part:

CENPV (UniProt Q7Z7K6)
inactive: ibrutinib 0.036 | ralimetinib 0.352 | [3] -0.235 | [8] 0.182 | [6] 0.121 | [7] -0.13

CDC37 (UniProt K7EKQ2)
inactive: [1] 0.155 | ralimetinib 0.007 | [3] -0.134 | [4] -0.004 | [8] -0.27 | [5] -0.027 | [6] 0.023 | [7] -0.022 | [2] -0.169
